Taken from: PubChem BioAssay AID602196 (INSERM, 2012)

Purpose: 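Modifiers of cisplatin sensitivity in A549 cells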
Cells: human A549 lung cancer cells
Reagents: siRNA pair against human genes
Timing: 48 h transfection before cisplatin; time from cisplatin to read-out not stated
Conditions: cisplatin at a dose killing half of control-siRNA cells; exact dose and duration not given
Measured: 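Cisplatin cell death as a shift from the 50% death seen with control siRNA; siRNAs toxic or growth-blocking alone scored 0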
Scale: two-siRNA summed score (-2 to +2): higher = both siRNAs protect from cisplatin killing; -2 means both sensitise; mean protection from cisplatin (shift in death) and protection from cisplatin (shift in death), siRNA C and protection from cisplatin (shift in death), siRNA D: higher = protection from cisplatin killing
Hit rule: 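siRNAs harmful alone (LDH or WST-1) get 0; others get +1 for less and -1 for more cisplatin killing; genes are active when the two siRNAs give the same sign, summing to ±2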
Calls: active = both siRNAs shift cisplatin killing the same way; inactive = no consistent shift, or siRNA harmful alone
The deposit covers about 23,000 reagents; this is an unselected part. 455 of all reagents (2%) were called active. 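Active includes both protection and sensitisation; some change values fall well beyond the stated -50 to +50 range.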 Unmarked entries are inactive. The record does not give: the amount of reagent.

| target | two-siRNA summed score (-2 to +2) | mean protection from cisplatin (shift in death) (%) | protection from cisplatin (shift in death), siRNA C (%) | protection from cisplatin (shift in death), siRNA D (%) |
| --- | --- | --- | --- | --- |
| LOC283953 | 0 | 18.5 | 26.7 | 10.2 |
| SASH1 (SAM and SH3 domain containing 1) | 0 | 8.8 | 5.9 | 11.7 |
| EPDR1 (ependymin related 1) | 0 | -3 | -15.5 | 9.6 |
| UGT3A1 (UDP glycosyltransferase family 3 member A1) | 1 | 18.3 | 15.3 | 21.4 |
| SLC30A1 | 0 | -1.8 | -12 | 8.4 |
| LOC130839 | 0 | 10.9 | 15.7 | 6 |
| ZNF567 (zinc finger protein 567) | 0 | 1.6 | 6.9 | -3.8 |
| SKIDA1 (SKI/DACH domain containing 1) | 1 | 10.5 | 1.5 | 19.5 |

2 entries from above in another layout.
{"target":"EPDR1 (ependymin related 1)","two-siRNA summed score (-2 to +2)":0,"mean protection from cisplatin (shift in death) (%)":-3,"protection from cisplatin (shift in death), siRNA C (%)":-15.5,"protection from cisplatin (shift in death), siRNA D (%)":9.6}
{"target":"UGT3A1 (UDP glycosyltransferase family 3 member A1)","two-siRNA summed score (-2 to +2)":1,"mean protection from cisplatin (shift in death) (%)":18.3,"protection from cisplatin (shift in death), siRNA C (%)":15.3,"protection from cisplatin (shift in death), siRNA D (%)":21.4}

Additional entries:
| target | two-siRNA summed score (-2 to +2) | mean protection from cisplatin (shift in death) (%) | protection from cisplatin (shift in death), siRNA C (%) | protection from cisplatin (shift in death), siRNA D (%) |
| --- | --- | --- | --- | --- |
| SAA1 (serum amyloid A1) | 0 | -1.5 | -3.2 | 0.1 |
| COL2A1 (collagen type II alpha 1 chain) | 0 | 11.2 | 19.1 | 3.2 |
| LOC441776 | 1 | 15.8 | 14.5 | 17.1 |
| MPZL2 (myelin protein zero like 2) | 0 | -4.2 | 1.2 | -9.6 |
| POLB (DNA polymerase beta) | 0 | -16.2 | -12.3 | -20.1 |
| FOLH1 (folate hydrolase 1) | 1 | 24.8 | 27.8 | 21.8 |
| DCAF1 (DDB1 and CUL4 associated factor 1) | 0 | 19.6 | 30.3 | 8.8 |
| DGCR6 (DiGeorge syndrome critical region gene 6) | 0 | 0.3 | 8.8 | -8.1 |
| ZNF823 (zinc finger protein 823) | 1 | 10.8 | 2.2 | 19.4 |
| PLVAP (plasmalemma vesicle associated protein) | 0 | 9.4 | 8.7 | 10.1 |
| SCP2 | 0 | 8 | 11.4 | 4.7 |
| ACACB (acetyl-CoA carboxylase beta) | 0 | -8.1 | -4.3 | -11.8 |
| FMO3 (flavin containing dimethylaniline monoxygenase 3) | 0 | 28 | 40.9 | 15.1 |
| LOC399786 | 0 | 0.3 | -1.7 | 2.3 |
| LPAR3 (lysophosphatidic acid receptor 3) | 0 | -1.4 | 17.3 | -20 |
